The target of this test is Green fluorescent protein (GFP)-tagged PRMT3 (protein arginine methyltransferase 3) (UniProt O60678). Briefly: co-IP; lysates of GFP- and GFP-PRMT3-overexpressing PANC-1 cells; immunoprecipitation with GFP and GAPDH antibodies; western blotting for GAPDH and GFP. (In western blotting, separated proteins are transferred to a membrane and probed.)

Amino acid sequences for entries named in this document (tags omitted).
UniProt O60678: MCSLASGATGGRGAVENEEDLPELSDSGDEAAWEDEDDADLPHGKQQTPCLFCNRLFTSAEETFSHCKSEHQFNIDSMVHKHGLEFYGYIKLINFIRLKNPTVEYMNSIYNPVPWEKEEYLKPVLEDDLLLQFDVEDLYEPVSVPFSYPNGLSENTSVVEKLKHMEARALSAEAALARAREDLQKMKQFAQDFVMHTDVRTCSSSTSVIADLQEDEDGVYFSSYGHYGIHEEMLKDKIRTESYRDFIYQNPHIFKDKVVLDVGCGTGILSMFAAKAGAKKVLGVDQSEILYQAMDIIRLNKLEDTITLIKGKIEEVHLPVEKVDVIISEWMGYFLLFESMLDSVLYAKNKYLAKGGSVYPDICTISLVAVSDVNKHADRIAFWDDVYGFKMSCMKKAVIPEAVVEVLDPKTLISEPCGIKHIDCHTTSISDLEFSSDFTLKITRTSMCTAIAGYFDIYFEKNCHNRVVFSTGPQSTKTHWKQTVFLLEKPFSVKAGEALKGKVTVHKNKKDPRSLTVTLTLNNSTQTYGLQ
UniProt P04406: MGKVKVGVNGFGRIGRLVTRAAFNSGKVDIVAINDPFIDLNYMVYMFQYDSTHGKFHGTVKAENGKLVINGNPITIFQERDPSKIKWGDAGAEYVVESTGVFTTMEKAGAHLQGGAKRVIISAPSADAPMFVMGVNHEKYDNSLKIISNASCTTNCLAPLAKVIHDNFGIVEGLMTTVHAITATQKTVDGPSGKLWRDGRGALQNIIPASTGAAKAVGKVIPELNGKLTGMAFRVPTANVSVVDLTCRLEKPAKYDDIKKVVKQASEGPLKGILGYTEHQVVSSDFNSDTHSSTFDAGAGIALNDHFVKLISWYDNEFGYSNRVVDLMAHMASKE

The text below walks through data of PMC6642535.

Results are given in words; binding and its absence hold for the method and conditions named. Binding seen in cells or lysates may run through a third protein. Some binding calls cover weakened binding; strength is not graded here.

Turning to “glyceraldehyde-3-phosphate dehydrogenase (GAPDH), endogenous (from UniProt P04406 1-335) (enzyme)”, the binding entry is reported as “binds”.
